Reference: article PMC4376527

Biological target: T1, Smaug (Smg) (Drosophila (endogenous in adult thoraxes)) (UniProt Q23972)
T1 sequence: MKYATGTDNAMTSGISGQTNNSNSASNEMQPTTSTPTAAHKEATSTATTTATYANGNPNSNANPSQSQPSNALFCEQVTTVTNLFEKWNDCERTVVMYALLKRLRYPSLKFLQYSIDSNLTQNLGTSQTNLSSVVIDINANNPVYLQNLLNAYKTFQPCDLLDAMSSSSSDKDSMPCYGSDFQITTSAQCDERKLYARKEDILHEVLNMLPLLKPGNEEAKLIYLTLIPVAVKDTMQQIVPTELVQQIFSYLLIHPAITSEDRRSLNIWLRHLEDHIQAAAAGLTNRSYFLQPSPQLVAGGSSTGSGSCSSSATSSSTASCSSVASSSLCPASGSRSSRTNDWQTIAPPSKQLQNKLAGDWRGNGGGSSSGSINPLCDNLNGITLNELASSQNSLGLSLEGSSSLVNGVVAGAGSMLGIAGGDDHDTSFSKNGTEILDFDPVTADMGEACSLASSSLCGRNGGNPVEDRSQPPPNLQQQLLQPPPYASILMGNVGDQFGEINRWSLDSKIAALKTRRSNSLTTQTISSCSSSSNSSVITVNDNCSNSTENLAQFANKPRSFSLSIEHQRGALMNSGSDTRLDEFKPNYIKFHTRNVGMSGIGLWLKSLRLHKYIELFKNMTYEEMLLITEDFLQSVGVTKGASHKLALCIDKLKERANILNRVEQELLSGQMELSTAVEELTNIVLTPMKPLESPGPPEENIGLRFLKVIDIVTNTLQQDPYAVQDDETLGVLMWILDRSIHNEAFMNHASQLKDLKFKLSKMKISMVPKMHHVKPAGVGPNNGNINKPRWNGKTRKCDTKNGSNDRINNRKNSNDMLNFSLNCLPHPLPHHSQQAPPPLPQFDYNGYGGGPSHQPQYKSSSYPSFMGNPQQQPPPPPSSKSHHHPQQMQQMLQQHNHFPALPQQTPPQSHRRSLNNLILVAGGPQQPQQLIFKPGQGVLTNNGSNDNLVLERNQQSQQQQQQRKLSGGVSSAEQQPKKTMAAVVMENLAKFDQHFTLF
Assay: co-IP; Smg immunoprecipitation (rabbit anti-Smg; mock IP with rabbit IgG) from UASp-CCR4-HA/Mhc-Gal4 adult thorax extracts, in the presence or the absence of RNase A; western blots with anti-Smg, anti-HA and anti-PABP2

binding: binds
Substance: CCR4-HA (Drosophila) (enzyme)

No constants are given. Whether binding was seen depends on the method and setting. In cells and extracts the contact can be indirect. Binding can be weak; no strength is given.
